Experimental data taken from the supplement of paper PMC10849652.
The list shows a part of the results.

Protein sequences, listed by entry. Tags and fused reporters are not part of them. Lines headed by an entry give the natural chain unless they say otherwise; changes in a name come on top.
UniProt Q9BX40: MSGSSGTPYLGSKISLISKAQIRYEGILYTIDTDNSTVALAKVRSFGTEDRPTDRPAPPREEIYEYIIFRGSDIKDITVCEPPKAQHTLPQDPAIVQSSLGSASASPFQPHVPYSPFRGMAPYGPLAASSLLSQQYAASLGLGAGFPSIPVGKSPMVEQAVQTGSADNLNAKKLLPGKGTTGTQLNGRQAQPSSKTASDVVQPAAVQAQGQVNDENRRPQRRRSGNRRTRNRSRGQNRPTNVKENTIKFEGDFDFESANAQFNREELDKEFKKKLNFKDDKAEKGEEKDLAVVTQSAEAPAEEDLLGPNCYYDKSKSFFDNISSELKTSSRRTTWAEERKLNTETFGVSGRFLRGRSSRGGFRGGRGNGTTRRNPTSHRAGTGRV
UniProt P53671: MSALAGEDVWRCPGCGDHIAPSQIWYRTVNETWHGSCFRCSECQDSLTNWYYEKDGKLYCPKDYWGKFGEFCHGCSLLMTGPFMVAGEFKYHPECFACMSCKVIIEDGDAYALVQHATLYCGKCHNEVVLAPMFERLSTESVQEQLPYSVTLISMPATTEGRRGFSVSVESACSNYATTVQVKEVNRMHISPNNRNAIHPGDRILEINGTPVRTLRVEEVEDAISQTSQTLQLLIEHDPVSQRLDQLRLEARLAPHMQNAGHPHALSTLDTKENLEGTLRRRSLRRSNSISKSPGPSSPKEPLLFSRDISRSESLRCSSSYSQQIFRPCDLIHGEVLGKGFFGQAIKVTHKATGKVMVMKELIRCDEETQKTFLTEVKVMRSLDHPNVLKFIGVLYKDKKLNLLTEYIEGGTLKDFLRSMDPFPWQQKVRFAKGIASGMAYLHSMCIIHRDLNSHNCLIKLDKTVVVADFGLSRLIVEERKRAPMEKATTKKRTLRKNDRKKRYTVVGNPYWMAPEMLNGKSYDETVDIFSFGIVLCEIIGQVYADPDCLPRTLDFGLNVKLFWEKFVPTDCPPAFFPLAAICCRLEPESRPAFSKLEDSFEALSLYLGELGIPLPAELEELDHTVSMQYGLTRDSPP
UniProt Q8N1G4: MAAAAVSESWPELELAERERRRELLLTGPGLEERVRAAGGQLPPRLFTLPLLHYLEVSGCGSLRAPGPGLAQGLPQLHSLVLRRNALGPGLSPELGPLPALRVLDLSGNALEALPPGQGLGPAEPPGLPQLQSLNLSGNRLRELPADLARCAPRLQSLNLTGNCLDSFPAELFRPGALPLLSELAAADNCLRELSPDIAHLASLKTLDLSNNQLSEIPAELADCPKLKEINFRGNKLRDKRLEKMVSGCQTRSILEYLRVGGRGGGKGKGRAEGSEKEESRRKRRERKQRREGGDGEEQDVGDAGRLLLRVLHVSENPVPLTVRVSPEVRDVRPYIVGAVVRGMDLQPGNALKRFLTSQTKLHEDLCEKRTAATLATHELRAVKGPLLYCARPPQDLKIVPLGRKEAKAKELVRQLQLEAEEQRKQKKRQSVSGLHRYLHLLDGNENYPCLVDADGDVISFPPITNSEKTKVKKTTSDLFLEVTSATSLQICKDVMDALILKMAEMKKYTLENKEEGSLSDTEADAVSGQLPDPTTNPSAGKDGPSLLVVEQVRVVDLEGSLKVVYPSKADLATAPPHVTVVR
UniProt Q6P1A2: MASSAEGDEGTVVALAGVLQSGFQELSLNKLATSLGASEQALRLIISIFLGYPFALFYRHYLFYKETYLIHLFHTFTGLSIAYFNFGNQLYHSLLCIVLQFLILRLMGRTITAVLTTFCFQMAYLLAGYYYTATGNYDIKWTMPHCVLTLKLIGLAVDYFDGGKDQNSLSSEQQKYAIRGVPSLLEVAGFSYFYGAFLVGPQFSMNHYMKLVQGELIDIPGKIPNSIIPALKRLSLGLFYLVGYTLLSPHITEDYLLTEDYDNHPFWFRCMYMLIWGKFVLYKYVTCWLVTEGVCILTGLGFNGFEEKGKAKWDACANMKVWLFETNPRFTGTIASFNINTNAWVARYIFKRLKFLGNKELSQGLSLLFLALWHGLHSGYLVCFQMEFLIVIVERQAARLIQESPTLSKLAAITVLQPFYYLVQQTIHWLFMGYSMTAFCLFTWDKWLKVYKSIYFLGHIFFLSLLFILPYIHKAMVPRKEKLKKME
UniProt Q6MZP7: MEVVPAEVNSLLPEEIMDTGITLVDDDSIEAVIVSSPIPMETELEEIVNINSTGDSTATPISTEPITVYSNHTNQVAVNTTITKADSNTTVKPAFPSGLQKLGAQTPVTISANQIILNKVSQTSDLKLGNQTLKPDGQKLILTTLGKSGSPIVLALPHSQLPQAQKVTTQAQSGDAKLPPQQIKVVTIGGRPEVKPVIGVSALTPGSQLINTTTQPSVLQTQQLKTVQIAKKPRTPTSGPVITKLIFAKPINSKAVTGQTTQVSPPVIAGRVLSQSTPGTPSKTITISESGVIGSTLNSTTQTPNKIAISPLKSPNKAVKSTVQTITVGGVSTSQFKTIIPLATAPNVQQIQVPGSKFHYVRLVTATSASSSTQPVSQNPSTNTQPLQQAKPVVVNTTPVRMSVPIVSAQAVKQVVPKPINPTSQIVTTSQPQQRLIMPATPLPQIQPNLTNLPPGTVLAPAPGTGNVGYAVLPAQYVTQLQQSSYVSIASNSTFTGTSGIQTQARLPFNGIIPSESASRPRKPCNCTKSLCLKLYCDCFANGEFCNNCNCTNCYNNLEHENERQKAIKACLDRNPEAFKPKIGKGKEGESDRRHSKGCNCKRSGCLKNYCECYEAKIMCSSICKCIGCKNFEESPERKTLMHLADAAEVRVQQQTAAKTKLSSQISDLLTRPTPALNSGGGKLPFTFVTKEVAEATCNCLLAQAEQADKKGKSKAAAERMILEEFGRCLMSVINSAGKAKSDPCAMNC
UniProt P17931, whole entry, looked up: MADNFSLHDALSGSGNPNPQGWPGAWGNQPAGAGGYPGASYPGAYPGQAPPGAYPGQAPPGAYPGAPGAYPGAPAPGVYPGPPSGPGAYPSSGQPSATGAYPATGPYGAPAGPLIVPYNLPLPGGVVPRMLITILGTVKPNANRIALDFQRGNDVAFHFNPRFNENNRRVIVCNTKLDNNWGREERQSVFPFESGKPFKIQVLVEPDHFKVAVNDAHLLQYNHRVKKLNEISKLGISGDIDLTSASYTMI
UniProt P07864: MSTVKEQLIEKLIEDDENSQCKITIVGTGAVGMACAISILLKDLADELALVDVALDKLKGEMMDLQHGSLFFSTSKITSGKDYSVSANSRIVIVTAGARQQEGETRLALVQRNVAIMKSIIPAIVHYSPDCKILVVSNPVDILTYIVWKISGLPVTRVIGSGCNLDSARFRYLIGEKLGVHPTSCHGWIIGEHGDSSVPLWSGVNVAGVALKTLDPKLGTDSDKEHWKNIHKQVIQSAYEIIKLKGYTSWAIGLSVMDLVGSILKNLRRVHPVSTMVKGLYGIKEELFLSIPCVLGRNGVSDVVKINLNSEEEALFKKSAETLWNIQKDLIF
UniProt Q03252: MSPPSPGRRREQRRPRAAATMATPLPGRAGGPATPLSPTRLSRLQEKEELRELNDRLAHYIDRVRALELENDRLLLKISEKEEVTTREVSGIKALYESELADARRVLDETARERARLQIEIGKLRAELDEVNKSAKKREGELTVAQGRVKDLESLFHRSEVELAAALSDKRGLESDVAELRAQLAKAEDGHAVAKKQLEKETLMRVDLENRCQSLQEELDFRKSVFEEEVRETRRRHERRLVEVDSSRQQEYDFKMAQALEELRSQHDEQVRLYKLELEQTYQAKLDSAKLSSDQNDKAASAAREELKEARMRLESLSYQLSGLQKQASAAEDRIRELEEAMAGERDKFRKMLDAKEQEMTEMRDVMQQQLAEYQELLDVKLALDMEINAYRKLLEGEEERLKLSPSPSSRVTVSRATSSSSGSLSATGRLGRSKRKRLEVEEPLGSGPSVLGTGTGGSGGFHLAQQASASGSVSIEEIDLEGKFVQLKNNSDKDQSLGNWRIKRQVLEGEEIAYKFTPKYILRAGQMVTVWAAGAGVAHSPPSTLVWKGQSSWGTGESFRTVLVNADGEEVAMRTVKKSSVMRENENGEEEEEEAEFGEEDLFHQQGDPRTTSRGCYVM

Key:
Test in all cases: log2 fold change, soluble protein after heating vs DMSO (PISA); higher = thermal stabilisation; K562 lysate, 10 uM; active = over 0.2 and 3.5 SD of the protein, either way, in both replicates (recomputed)
[1] = compound: NCC(=O)Nc1ccc(-n2nc(C(F)(F)F)cc2-c2ccc3c(ccc4ccccc43)c2)cc1
Summary of the method: (§1)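 Dounce homogenisation of K562 pellets in PBS pH 7.4 with 1 mM MgCl2 produced a crude extract, used at 1 mg/mL protein. Exposure to 10 μM compound lasted 30 min, and aliquots were then heated for 3 min across 48°C-58°C, pooled and brought to 0.5% NP-40 at 4°C. The supernatant after 21,000xg for 90 min was quantified by TMTpro 16plex LC-MS/MS with channel sums equalised. Duplicate values are given as log-two fold change in thermal stability relative to solvent controls.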

vorinostat = compound: O=C(CCCCCCC(=O)Nc1ccccc1)NO [vorinostat]
Summary of the method: as §1

silmitasertib = compound: O=C(O)c1ccc2c(c1)nc(Nc1cccc(Cl)c1)c1ccncc12 [silmitasertib]
Summary of the method: as §1

[2] = compound: O=C1NC(=O)C(c2cnc3ccccn23)=C1c1cn2c3c(cc(F)cc13)CN(C(=O)N1CCCCC1)CC2
Summary of the method: as §1

entospletinib = compound: c1cn2cc(-c3ccc4cn[nH]c4c3)nc(Nc3ccc(N4CCOCC4)cc3)c2n1 [entospletinib]
Summary of the method: as §1

Measured: log2 fold change

LSM14B isoform 2 (UniProt Q9BX40)
inactive: [1] -0.04 | vorinostat -0.093 | silmitasertib -0.008 | [2] -0.047 | entospletinib -0.015

LIMK2 isoform 3 (UniProt P53671)
inactive: [1] -0.011 | vorinostat -0.21 | silmitasertib 0.114 | [2] 0.021 | entospletinib -0.055

LRRC47 (UniProt Q8N1G4)
inactive: [1] 0.017 | vorinostat 0.015 | silmitasertib 0.008 | [2] 0.009 | entospletinib 0.03

LPCAT3 (UniProt Q6P1A2)
inactive: [1] 0.071 | vorinostat 0.013 | silmitasertib 0.006 | [2] -0.023 | entospletinib -0.138

LIN54 (UniProt Q6MZP7)
inactive: [1] 0.053 | vorinostat -0.088 | silmitasertib -0.051 | [2] -0.053 | entospletinib -0.027

LGALS3 (UniProt P17931)
inactive: [1] -0.027 | vorinostat 0.121 | silmitasertib -0.145 | [2] 0.074 | entospletinib 0.247

LDHC (UniProt P07864)
inactive: [1] 0.046 | vorinostat 0.1 | silmitasertib -0.075 | entospletinib -0.014

LMNB2 (UniProt Q03252)
inactive: [1] -0.023 | vorinostat 0.072 | silmitasertib 0.079 | [2] -0.038 | entospletinib 0.015

LDHA isoform 3 (UniProt P00338)
inactive: [1] 0.01 | vorinostat 0.12 | silmitasertib 0.009 | [2] 0.004 | entospletinib 0.045
